## Library screen at single concentrations

By UniProt entry, the sequences of proteins in these tests, tags left out. Residues count along the entry.
UniProt Q8IDJ8, 1-583: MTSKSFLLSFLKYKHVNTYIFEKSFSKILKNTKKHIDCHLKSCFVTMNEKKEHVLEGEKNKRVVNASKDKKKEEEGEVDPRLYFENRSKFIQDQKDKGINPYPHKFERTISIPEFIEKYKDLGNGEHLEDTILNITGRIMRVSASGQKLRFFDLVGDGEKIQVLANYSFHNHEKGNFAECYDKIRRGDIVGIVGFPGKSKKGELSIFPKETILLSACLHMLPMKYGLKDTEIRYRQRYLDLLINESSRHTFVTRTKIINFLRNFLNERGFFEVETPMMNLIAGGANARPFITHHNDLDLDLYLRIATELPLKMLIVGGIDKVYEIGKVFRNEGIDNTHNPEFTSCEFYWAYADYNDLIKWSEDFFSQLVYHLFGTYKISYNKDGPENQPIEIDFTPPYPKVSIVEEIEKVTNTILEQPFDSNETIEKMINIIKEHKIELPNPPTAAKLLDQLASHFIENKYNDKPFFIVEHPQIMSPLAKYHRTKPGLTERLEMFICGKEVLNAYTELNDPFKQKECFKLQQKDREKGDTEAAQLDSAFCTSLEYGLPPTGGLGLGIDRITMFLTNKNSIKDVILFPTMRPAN
UniProt I6X8D2, whole entry: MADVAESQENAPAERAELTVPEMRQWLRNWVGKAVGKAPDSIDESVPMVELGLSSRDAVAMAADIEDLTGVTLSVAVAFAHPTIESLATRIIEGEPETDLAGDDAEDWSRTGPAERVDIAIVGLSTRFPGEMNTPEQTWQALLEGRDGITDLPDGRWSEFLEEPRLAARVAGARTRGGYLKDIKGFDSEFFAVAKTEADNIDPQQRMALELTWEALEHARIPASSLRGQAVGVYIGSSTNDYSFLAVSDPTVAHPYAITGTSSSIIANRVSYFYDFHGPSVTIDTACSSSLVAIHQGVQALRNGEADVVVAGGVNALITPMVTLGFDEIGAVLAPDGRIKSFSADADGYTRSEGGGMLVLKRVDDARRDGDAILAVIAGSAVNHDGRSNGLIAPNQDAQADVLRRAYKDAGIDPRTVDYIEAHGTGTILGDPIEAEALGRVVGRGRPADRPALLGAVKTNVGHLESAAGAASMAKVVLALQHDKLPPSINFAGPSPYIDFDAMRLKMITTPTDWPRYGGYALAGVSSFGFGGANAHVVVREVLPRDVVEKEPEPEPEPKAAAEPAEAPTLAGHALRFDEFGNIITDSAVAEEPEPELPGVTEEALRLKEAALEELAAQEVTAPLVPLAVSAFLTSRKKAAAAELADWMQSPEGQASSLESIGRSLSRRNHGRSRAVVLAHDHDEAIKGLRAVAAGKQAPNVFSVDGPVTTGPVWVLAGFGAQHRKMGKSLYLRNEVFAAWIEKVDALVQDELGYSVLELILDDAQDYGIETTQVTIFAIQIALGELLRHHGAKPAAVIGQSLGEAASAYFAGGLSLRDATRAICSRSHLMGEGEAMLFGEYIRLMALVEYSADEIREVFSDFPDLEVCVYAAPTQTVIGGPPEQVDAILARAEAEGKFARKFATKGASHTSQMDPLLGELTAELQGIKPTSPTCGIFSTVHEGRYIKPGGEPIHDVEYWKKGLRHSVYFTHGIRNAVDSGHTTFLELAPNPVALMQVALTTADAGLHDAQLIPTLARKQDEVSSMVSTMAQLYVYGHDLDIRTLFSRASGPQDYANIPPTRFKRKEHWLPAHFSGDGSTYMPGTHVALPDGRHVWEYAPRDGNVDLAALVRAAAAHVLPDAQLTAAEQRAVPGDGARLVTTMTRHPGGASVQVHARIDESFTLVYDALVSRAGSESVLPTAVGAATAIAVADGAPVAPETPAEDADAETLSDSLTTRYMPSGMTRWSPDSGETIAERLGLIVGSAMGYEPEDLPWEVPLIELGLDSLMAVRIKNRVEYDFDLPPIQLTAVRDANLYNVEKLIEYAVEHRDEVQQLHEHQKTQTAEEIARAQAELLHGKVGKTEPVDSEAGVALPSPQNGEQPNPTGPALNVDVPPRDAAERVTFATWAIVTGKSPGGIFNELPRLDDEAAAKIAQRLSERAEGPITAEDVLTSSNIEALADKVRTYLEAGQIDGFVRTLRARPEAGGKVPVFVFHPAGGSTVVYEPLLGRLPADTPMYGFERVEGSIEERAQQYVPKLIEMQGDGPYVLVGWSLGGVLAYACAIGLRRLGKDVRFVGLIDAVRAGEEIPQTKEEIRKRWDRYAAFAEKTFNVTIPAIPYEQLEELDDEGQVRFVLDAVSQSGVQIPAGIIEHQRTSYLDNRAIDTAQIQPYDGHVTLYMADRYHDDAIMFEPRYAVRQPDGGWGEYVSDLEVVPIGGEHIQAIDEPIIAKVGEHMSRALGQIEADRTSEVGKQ
UniProt P9WNZ1, whole entry: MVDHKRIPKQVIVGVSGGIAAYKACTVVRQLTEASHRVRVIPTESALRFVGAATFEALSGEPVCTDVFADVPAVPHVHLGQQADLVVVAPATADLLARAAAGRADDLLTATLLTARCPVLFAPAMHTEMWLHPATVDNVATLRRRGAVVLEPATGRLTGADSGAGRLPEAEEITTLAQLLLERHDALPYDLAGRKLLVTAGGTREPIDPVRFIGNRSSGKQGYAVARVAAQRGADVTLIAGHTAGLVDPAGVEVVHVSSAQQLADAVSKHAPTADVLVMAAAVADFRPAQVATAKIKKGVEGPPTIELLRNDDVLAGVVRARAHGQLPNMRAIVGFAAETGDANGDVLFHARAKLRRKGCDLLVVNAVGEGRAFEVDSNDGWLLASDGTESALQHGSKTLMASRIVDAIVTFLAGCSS
UniProt Q4DA54, 1-478: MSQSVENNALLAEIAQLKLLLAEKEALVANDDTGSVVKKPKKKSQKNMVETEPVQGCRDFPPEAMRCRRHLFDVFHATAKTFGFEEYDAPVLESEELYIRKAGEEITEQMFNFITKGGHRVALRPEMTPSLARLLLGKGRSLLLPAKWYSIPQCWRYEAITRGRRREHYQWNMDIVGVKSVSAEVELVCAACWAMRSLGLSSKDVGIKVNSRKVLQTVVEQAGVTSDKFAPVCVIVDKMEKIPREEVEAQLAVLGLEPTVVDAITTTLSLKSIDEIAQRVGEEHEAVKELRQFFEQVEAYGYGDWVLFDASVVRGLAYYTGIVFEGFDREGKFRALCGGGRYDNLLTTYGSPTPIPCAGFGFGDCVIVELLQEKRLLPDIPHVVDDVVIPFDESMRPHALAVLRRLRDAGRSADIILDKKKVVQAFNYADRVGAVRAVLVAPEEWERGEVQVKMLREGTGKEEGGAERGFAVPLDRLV
UniProt P9WFT3, whole entry: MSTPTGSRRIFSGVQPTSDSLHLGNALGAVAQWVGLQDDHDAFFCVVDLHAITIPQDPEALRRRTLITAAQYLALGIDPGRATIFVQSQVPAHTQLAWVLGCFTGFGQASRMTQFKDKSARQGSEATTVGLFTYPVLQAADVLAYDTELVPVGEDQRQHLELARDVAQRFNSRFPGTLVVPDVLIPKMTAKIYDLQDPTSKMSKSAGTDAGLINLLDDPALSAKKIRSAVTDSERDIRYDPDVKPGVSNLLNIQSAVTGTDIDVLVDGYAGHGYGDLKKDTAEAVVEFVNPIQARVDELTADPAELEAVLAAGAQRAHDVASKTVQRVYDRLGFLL
UniProt P9WPC5, whole entry: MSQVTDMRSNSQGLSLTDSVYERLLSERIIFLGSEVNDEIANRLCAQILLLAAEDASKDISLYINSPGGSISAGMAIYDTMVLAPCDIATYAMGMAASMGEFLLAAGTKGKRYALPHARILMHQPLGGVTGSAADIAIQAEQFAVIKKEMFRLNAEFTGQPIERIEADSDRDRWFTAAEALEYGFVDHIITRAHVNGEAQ
UniProt P9WPC3, whole entry partner: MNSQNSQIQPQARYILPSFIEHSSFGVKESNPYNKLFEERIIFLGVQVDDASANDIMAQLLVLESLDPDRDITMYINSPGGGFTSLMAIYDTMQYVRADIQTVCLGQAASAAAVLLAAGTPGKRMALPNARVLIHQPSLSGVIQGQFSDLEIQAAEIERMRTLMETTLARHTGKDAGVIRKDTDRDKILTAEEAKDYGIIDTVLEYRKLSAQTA

Measurements from “University of Dundee, Small-Polar-MMV Screening Library” (2021), ChEMBL document CHEMBL3988442.

A: 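Enzyme assay of the cytosolic lysyl-tRNA synthetase in 384-well plates, read by luminescence. Target: Lysine-tRNA ligase, Plasmodium falciparum 3D7 (UniProt Q8IDJ8). Tested at 30 µM. Direction is inferred from only a few compounds that gave an IC50; most scored high, so higher reads as stronger inhibition. Of about 69,000 compounds tested this way, about 49 (0.071%) reached 50% or more in at least one test.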
B: 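Enzyme assay of the thioesterase domain of polyketide synthase 13; the read-out is not stated. Target: Polyketide synthase Pks13, Mycobacterium tuberculosis (UniProt I6X8D2). Tested at 30 µM. The record gives no direction; the compounds picked for IC50 retests had high values, so higher reads as stronger inhibition. Size under these conditions: about 67,000 compounds, about 300 of them at 50% or above in at least one test.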
C: 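Coenzyme A biosynthesis protein CoaBC, Mycobacterium tuberculosis (UniProt P9WNZ1). Enzyme assay of CoaBC with a phosphate dye (Biomol Green) read at 650 nm. Compounds at 30 µM. Direction is inferred from only a few compounds that gave an IC50; most scored high, so higher reads as stronger inhibition. Most strong results did not repeat in a second test. About 67,000 compounds were tested under these conditions; 0.06% (about 40) showed 50% or more at least once.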
D: 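Enzyme assay of histidyl-tRNA synthetase; the read-out is not stated. Target: Histidine-tRNA ligase, Trypanosoma cruzi CL Brener (UniProt Q4DA54). Concentration: 30 µM. The record gives no direction; compounds that gave an IC50 in retests scored well above the rest, so higher reads as stronger inhibition. About 69,000 compounds were tested under these conditions; 0.045% (about 31) showed 50% or more at least once.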
E: 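Enzyme assay of tryptophanyl-tRNA synthetase; the read-out is not stated. Target: Tryptophan-tRNA ligase, Mycobacterium tuberculosis (UniProt P9WFT3). Concentration: 10 µM. Higher most likely means stronger inhibition; the record gives no direction and few retests gave an IC50. Of about 65,000 compounds tested this way, about 64 (0.098%) reached 50% or more in at least one test.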
F: 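ClpP1P2, Mycobacterium tuberculosis (UniProt P9WPC5 and UniProt P9WPC3). Protease assay of ClpP1P2, read by the AMC dye that it sets free. Concentration: 50 µM. Direction is inferred from only a few compounds that gave an IC50; most scored high, so higher reads as stronger inhibition. Most other retested compounds had strongly negative values. About 69,000 compounds were tested under these conditions; 0.015% (about 10) showed 50% or more at least once.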

Results are given as percent effect. The record does not define 0% and 100%; most values in the screen are far below 50% and negative numbers occur (in some assays of this library far below -100). The compounds are a random part of those screened.

For CC(C)C(C(=O)N1CCCN(Cc2nccn2C)CC1)N1CCCC1 (stereo not shown) the result was A: -6.652%; B: -2.972%; C: -5.734%; D: 3.448%; E: -6.122%; F: 15.35%. With NC(=O)C1CCN(C(=O)NC2CCc3cc(Cl)ccc32)CC1 (stereo not shown) the screen gave A: 7.183%; B: -28.39%; C: -27.67%; D: -5.263%; E: 2.437%; F: 0.2595%. Result for CSCCC1c2nc[nH]c2CCN1Cc1ccnc2ccccc12 (stereo not shown) was A: 9.566%; B: 4.02%; C: -21.88%; D: 9.544%; E: 21.14%; F: -26.5%. Cc1c(F)cc(C(=O)O)cc1S(=O)(=O)Nc1ccccc1 read A: 0.4217%; B: -17.68%; C: -1.842%; D: 3.812%; E: -5.481%; F: -15.25%. For O=C(C[S+]([O-])Cc1ccc(F)cc1)N1CCc2sccc2C1 (stereo not shown) the result was A: 2.167%; B: -21.48%; C: 16.29%; D: 2.646%; E: 1.685%; F: 2.973%. COC(=O)N1CC(C)=C(C)CN1C(=O)Nc1ccc(Cl)cc1 gave A: 1.236%; B: -3.474%; C: -0.6135%; D: -1.156%; F: -2.74%. For O=C(Nc1cnc2n1CCCC2)c1cccc(OCC(F)(F)F)c1 the result was A: 3.919%; B: 8.442%; C: 1.468%; D: 6.931%; E: -8.112%; F: -15.78%. For O=C1NCC2(CCCN(C(=O)CCn3cnc4ccccc43)CC2)O1 (stereo not shown) the result was A: 3.766%; B: -8.027%; C: 0.8631%; D: 4.386%; E: 0.6006%; F: -4.86%.

O=C(NCCn1cc(Cl)cn1)C1CCN(C(=O)C2CC2)CC1 read A: 0.6811%; B: -4.338%; C: 11.2%; D: 5.747%; E: 4.204%; F: 11.35%. Cc1noc(C)c1CC(=O)N[C@@H]1CC[C@@H](Oc2ccccc2)[C@@H]1O gave A: 1.25%; B: -3.072%; C: 4.116%; D: 7.91%; E: 3.851%; F: -14.27%. Cc1ncsc1CCNC(=O)Cn1nc(C)n(Cc2ccccc2)c1=O read A: 3.088%; B: -22.2%; C: -0.2049%; D: 5.319%; E: 0.722%; F: 0.3354%. CCS(=O)(=O)CCSc1ccc(Cl)cc1 gave A: -2.464%; B: 1.274%; C: 9.091%; D: 6.061%; E: 5.032%; F: -1.512%.

The last 2 entries again:

compound,A,B,C,D,E,F
Cc1ncsc1CCNC(=O)Cn1nc(C)n(Cc2ccccc2)c1=O,3.088%,-22.2%,-0.2049%,5.319%,0.722%,0.3354%
CCS(=O)(=O)CCSc1ccc(Cl)cc1,-2.464%,1.274%,9.091%,6.061%,5.032%,-1.512%